Data reported in article PMC9375285.

Protein sequences, listed by entry. Tags and fused reporters are not part of them. Lines headed by an entry give the natural chain unless they say otherwise; changes in a name come on top.
UniProt P05019: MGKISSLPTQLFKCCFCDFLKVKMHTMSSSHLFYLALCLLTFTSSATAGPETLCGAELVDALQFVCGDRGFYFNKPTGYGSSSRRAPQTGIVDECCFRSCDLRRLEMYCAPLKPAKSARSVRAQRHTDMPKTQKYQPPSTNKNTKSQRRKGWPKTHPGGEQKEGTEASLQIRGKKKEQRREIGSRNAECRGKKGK
UniProt P06756: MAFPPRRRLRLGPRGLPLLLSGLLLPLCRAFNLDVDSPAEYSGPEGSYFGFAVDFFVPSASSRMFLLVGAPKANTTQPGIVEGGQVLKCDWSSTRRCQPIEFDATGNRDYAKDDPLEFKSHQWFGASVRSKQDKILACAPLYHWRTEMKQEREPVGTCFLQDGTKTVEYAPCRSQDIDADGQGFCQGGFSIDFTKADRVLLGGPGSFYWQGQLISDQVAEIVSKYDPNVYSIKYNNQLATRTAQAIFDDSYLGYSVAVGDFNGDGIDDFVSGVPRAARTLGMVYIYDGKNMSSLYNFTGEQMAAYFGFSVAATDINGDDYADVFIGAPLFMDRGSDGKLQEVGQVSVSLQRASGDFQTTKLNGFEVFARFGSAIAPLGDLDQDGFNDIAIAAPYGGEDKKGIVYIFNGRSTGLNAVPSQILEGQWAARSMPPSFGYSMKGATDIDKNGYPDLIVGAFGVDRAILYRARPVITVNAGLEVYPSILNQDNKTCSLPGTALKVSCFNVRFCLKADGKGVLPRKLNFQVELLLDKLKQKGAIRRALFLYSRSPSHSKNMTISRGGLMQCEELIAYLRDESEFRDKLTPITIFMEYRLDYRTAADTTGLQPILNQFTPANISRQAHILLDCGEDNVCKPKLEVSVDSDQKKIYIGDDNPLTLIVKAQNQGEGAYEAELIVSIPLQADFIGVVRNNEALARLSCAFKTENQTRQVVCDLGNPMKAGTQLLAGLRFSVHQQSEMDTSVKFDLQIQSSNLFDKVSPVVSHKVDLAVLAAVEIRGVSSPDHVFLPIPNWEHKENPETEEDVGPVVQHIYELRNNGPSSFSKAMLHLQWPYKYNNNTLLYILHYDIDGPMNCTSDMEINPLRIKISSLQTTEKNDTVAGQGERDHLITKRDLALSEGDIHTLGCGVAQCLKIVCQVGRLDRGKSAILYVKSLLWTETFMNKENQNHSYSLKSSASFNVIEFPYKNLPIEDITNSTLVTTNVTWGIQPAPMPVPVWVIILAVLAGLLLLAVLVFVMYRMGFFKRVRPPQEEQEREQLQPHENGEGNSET

Assays:
[1] = target: insulin growth factor-1 (IGF1) (human (endogenous in CAOV4)) (UniProt P05019); test: co-IP; cell lysate incubated with Protein A&G Agarose and 1 μg rabbit IgG or IGF1 primary antibody at 4 °C overnight; rinsed twice with 0.5 M NaCl lysis buffer; Western blot; cells with sh-WISP1 and/or IGF1, or overexpressed WISP1
[2] = target: insulin growth factor-1 (IGF1) (human (endogenous in CAOV4)) (UniProt P05019); test: as above; remark: listed apart in the source

binding [1] | binding [2] | Molecule
binds | – | integrin αvβ3 (from UniProt P06756 31-1048; P05106 27-788) (receptor)
– | binds | WISP1 (protein, UniProt O95388 23-367) TALSPAPTTMDFTPAPLEDTSSRPQFCKWPCECPPSPPRCPLGVSLITDGCECCKMCAQQLGDNCTEAAICDPHRGLYCDYSGDRPRYAIGVCAQVVGVGCVLDGVRYNNGQSFQPNCKYNCTCIDGAVGCTPLCLRVRPPRLWCPHPRRVSIPGHCCEQWVCEDDAKRPRKTAPRDTGAFDAVGEVEAWHRNCIAYTSPWSPCSTSCGLGVSTRISNVNAQCWPEQESRLCNLRPCDVDIHTLIKAGKKCLAVYQPEASMNFTLAGCISTRSYQPKYCGVCMDNRCCIPYKSKTIDVSFQCPDGLGFSRQVLWINACFCNLSCRNPNDIFADLESYPDFSEIAN

Like-named read-outs stand apart in the source and are kept apart here. Results are given in words; binding and its absence hold for the method and conditions named. In cells and extracts the contact can be indirect. Binding calls can cover weak binding; strength is not graded here.
